Data as given in PubChem BioAssay AID652243 (Drosophila RNAi Screening Center, 2013)

Purpose: 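Fly regulators of androgen-dependent reporter output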 (primary screen)
Cell system: Drosophila S2R+ cells
Knock-down reagent: long dsRNA against Drosophila genes
Timing: 72 h (48 h, then 24 h hormone)
Conditions: synthetic androgen R1881 at 10 nM for 24 h
Detection: 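Per-well raw luminescence of the androgen-driven firefly reporter and of the Renilla control, two replicates each, without normalisation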
Scale: firefly reporter light: higher = more light from androgen-responsive reporter; Renilla control light: higher = more constitutive control signal (cell number, transfection)
Active means: 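Across duplicate plates, a knock-down whose log firefly/Renilla ratio shifted a set fold down or up from the GFP/LacZ control mean was a hit; the downward cut appears as both 1.5 and 3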
Meaning of the calls: active = hit: reporter lowered or raised; inactive = no hit
The screen tested about 24,000 reagents; shown is an unselected part of those with a known target gene and a result. Over the whole deposit, 246 (1%) are marked active. 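Plates not normalised; calls are printed but the firefly/Renilla ratio behind them is not deposited; fold cut for lowering reported inconsistently.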 Raw values vary from plate to plate and are shown uncorrected. Reagents against one gene are numbered here. Names joined by + are all predicted targets of the reagent. Not stated in the record: the amount of reagent.

The first 4 records as a preview:
| gene | reagent no. | firefly reporter light, replicate 1 | firefly reporter light, replicate 2 | Renilla control light, replicate 1 | Renilla control light, replicate 2 | call |
| --- | --- | --- | --- | --- | --- | --- |
| CG12917 | 1 | 3.25e5 | 2.62e5 | 1.44e6 | 1.40e6 | inactive |
| Ir7g (Ionotropic receptor 7g) | 1 | 1.25e5 | 2.23e5 | 1.93e6 | 2.25e6 | inactive |
| Ir7g (Ionotropic receptor 7g) | 2 | 4.86e5 | 4.63e5 | 1.07e6 | 1.28e6 | inactive |
| zfh1 (Zn finger homeodomain 1) | 1 | 44302 | 12653 | 2.03e5 | 1.40e5 | inactive |

Results, from the start:
| gene | reagent no. | firefly reporter light, replicate 1 | firefly reporter light, replicate 2 | Renilla control light, replicate 1 | Renilla control light, replicate 2 | call |
| --- | --- | --- | --- | --- | --- | --- |
| CG12917 | 1 | 3.25e5 | 2.62e5 | 1.44e6 | 1.40e6 | inactive |
| Ir7g (Ionotropic receptor 7g) | 1 | 1.25e5 | 2.23e5 | 1.93e6 | 2.25e6 | inactive |
| Ir7g (Ionotropic receptor 7g) | 2 | 4.86e5 | 4.63e5 | 1.07e6 | 1.28e6 | inactive |
| zfh1 (Zn finger homeodomain 1) | 1 | 44302 | 12653 | 2.03e5 | 1.40e5 | inactive |
| zfh1 (Zn finger homeodomain 1) | 2 | 2.21e5 | 1.55e5 | 4.38e5 | 3.03e5 | inactive |
| MtnA (Metallothionein A) | 1 | 6.45e5 | 7.62e5 | 2.68e6 | 3.49e6 | inactive |
| CG32633 | 1 | 9.22e5 | 6.26e5 | 2.44e6 | 1.29e6 | inactive |
| Unc50 (Unc50 RNA binding protein) | 1 | 1.61e5 | 1.34e5 | 1.89e6 | 1.81e6 | inactive |
| Unc50 (Unc50 RNA binding protein) | 2 | 2.39e5 | 3.74e5 | 6.68e5 | 1.11e6 | inactive |
| AkhR (Adipokinetic hormone receptor) | 1 | 1.22e6 | 1.15e6 | 2.10e6 | 1.66e6 | inactive |
| AkhR (Adipokinetic hormone receptor) | 2 | 5.17e5 | 3.70e5 | 1.26e6 | 1.31e6 | inactive |
| Nlp (Nucleoplasmin) | 1 | 56124 | 45279 | 6.82e5 | 4.17e5 | inactive |
| Nlp (Nucleoplasmin) | 2 | 2.27e5 | 3.09e5 | 4.11e5 | 7.05e5 | inactive |
| HIP + HIP-R | 1 | 1.26e5 | 1.16e5 | 1.12e6 | 7.89e5 | inactive |
| HIP + HIP-R | 2 | 4.01e5 | 2.51e5 | 9.32e5 | 6.67e5 | inactive |
| HIP + HIP-R | 3 | 4.51e5 | 4.36e5 | 1.39e6 | 1.40e6 | inactive |
| laf (labial associated factor) | 1 | 1.09e5 | 1.05e5 | 1.67e6 | 1.61e6 | inactive |
| CG1688 | 1 | 5.46e5 | 4.93e5 | 1.53e6 | 1.66e6 | inactive |
| Gr22e (Gustatory receptor 22e) | 1 | 7.86e5 | 6.42e5 | 1.41e6 | 1.13e6 | inactive |
| put (punt) | 1 | 94826 | 1.03e5 | 8.99e5 | 6.79e5 | active |
| put (punt) | 2 | – | – | – | – | inactive |
| put (punt) | 3 | – | – | – | – | inactive |
| E(spl)mdelta-HLH (Enhancer of split mdelta, helix-loop-helix) | 1 | 1.27e5 | 1.28e5 | 2.38e6 | 2.24e6 | inactive |
| CG1764 | 1 | 2.18e5 | 1.38e5 | 1.01e6 | 7.68e5 | inactive |
| colt (congested-like trachea) | 1 | 9.03e5 | 7.81e5 | 2.91e6 | 1.93e6 | inactive |
| colt (congested-like trachea) | 2 | 5.20e5 | 4.65e5 | 1.25e6 | 1.08e6 | inactive |
| CG6693 | 1 | 75774 | 50537 | 4.25e5 | 3.34e5 | inactive |
| CG6693 | 2 | 4.44e5 | 3.87e5 | 2.02e6 | 1.54e6 | inactive |
| subdued | 1 | 89640 | 1.03e5 | 5.00e5 | 4.91e5 | inactive |
| Orc6 (Origin recognition complex subunit 6) | 1 | 1.86e5 | 2.67e5 | 1.21e6 | 2.27e6 | inactive |
| ck (crinkled) | 1 | 1.03e6 | 7.73e5 | 1.49e6 | 1.35e6 | inactive |
| CG1789 | 1 | 1.75e5 | 1.37e5 | 6.96e5 | 6.16e5 | inactive |
| CG1789 | 2 | 1.23e6 | 1.19e6 | 1.46e6 | 1.27e6 | inactive |
| CG14937 | 1 | 1.66e5 | 1.62e5 | 1.28e6 | 1.61e6 | inactive |
| CG5913 | 1 | 1.34e5 | 1.56e5 | 3.06e6 | 3.13e6 | inactive |
| Ptp61F (Protein tyrosine phosphatase 61F) | 1 | 83884 | 67638 | 1.07e6 | 7.16e5 | inactive |
| Ptp61F (Protein tyrosine phosphatase 61F) | 2 | 6.32e5 | 7.33e5 | 1.35e6 | 1.32e6 | inactive |
| Ptp61F (Protein tyrosine phosphatase 61F) | 3 | – | – | – | – | inactive |
| ACXB (Adenylyl cyclase X B) | 1 | 1.42e5 | 1.39e5 | 1.13e6 | 1.37e6 | inactive |
| ACXB (Adenylyl cyclase X B) | 2 | 3.51e5 | 3.69e5 | 6.18e5 | 6.21e5 | inactive |
